Data: article PMC8750349
Results are given in words; binding and its absence hold for the method and conditions named. Binding calls can cover weak binding; strength is not graded here. Tags and fused reporters may be left off the sequences shown.

Molecular target: T1, RhoGDI2Δ20, GAL4 DNA binding domain fusion (human) (UniProt P52566)
T1 sequence: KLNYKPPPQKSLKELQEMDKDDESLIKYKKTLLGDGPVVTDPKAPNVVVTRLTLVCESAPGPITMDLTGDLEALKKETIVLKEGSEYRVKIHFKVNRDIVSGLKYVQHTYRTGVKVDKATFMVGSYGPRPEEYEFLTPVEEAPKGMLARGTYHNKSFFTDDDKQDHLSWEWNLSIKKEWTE
Experiment: two-hybrid; yeast strain AH109; RhoGDI2(WT) or RhoGDI2Δ20 in pGBK7 (GAL4 BD), Rac1 or FLNA/Rod2 in pGADT7 (AD); growth on SD medium lacking Leu, Trp and His; screening and pairwise test

binding: binds
Substance: Rod-2 domain of Filamin A (FLNA/Rod-2), activation domain fusion (human) (domain or fragment)
